Results on one molecule are retold here after publication PMC3655167.

Results are given in words; binding and its absence hold for the method and conditions named. Binding seen in cells or lysates may run through a third protein. Some binding calls cover weakened binding; strength is not graded here. Tags and fused reporters may be left off the sequences shown.

The target of the assay is T1, BRP44 with a C-terminal 6×His-tag (UniProt Q9D023).
T1 sequence (chain, crosslinked with the 125I-labelled photoprobe MSDC-1101 (residue not stated)): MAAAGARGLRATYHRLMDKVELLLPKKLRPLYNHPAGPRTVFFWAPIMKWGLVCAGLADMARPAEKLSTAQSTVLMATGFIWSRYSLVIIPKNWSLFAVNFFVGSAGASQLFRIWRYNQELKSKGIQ
As to the kind of experiment: co-IP; solubilized, MSDC-1101-crosslinked mitochondria from HEK293 cells stably expressing BRP44-6×His; immunoprecipitated with anti-His agarose beads; partners shown by Western blots and mass spectrometry (not shown). (In general: A western blot detects proteins with antibodies after separation by electrophoresis.)

B1: BRP44-Like (protein, UniProt Q9Y5U8 1-109)
chain: MAGALVRKAADYVRSKDFRDYLMSTHFWGPVANWGLPIAAINDMKKSPEIISGRMTFALCCYSLTFMRFAYKVQPRNWLLFACHATNEVAQLIQGGRLIKHEMTKTASA
Consider B1, for which the binding result was “binds”.
